Measured values: patent US10239884B2, “Coelenterazine compounds and uses thereof” (KEIO UNIVERSITY, priority 2017, dated 2019)

Test system: ALuc34
Assay: Bioluminescence spectrum, ALuc system
Assay type: biochemical
Conditions: ATTO LumiFL

| SMILES | ALuc34 maximum luminescence intensity (nm) |
| --- | --- |
| [N-]=[N+]=NCCOc1ccc(-c2cn3c(=O)c(Cc4ccc(O)cc4)nc-3c(Cc3ccccc3)[nH]2)cc1 [Example 6-Al2N3-CTZ] | 503 |
| Oc1ccc(Cc2nc3c(Cc4ccccc4)nc(-c4ccc(O)cc4)cn3c2O)cc1 [Native-CTZ, coelenterazine] | 500 |
